PubChem BioAssay AID624058 (Broad Institute, 2012)
Inconclusive results, whose numbers are uncertain, are shown with a selection of clear calls. Calls of active or inactive are those of the source. How the calls were made is not given here.

Assay: EDDHA-treated Pseudomonas aeruginosa growth inhibition – OD600, ATCC 15692, cherry-pick, set 2, dose response (AID 624058)
Conditions: P. aeruginosa ATCC 15692 with EDDHA, OD600, 24-30 h; at 50 µM (top of the series) unless noted
With `O=C(NC1CCS(=O)(=O)C1)c1cccc(Br)c1` (stereo not drawn) the growth inhibition was inconclusive: 10.5%. For `N#CC(c1ccccc1)c1cccc(Cl)n1` (stereo not drawn), the growth inhibition was inconclusive: -14.9%. In the case of `CC(C)N=C(NC#N)SCc1ccccc1F`, the growth inhibition is reported as inconclusive: 20.8%. In the case of `CCOc1ccc(-n2cccc2C=O)cc1`, the growth inhibition is reported as inactive: 38.6%. For `COc1ccc(C2=C(C=O)Cc3ccccc3O2)cc1`, the growth inhibition was inconclusive: -20.9%. With `O=C(c1cccc([N+](=O)[O-])c1)N1CC2C3C=CC(C3)C2C1` (stereo not drawn) the growth inhibition was inconclusive: 16.7%. In the case of `COC(=O)c1cc(-c2ccc(Br)cc2)on1`, the growth inhibition is reported as inconclusive: -40.9%. With `OC(c1cccc(Cl)c1)c1nccc2ccccc12` (stereo not drawn) the growth inhibition was inconclusive: -12.5%. With `O=C1N[C@@H](Cc2ccccc2)[C@@H](c2ccco2)O1` the growth inhibition was inconclusive: 41.9%. In the case of `O=CC1=C(c2ccccc2)Oc2ccccc2O1`, the growth inhibition is reported as inconclusive: 21.8%. For `Cc1ccc(C)c(S(=O)(=O)NC2CCSC2=O)c1` (stereo not drawn), the growth inhibition was inconclusive: 20%. In the case of `COC(=O)c1ccc(OC(=O)c2cccs2)cc1`, the growth inhibition is reported as inconclusive: 40.9%. With `N#CN(Cc1ccccc1)Cc1ccccc1` the growth inhibition was inconclusive: 5.45%. With `Cc1ccc(C(C#N)c2ccc(Cl)nn2)cc1` (stereo not drawn) the growth inhibition was inconclusive: 5.66%. In the case of `CCNC(=O)COc1ccc2ccccc2c1`, the growth inhibition is reported as inconclusive: 29.4%. With `CCOC(=O)c1ccc(N2Cc3ccccc3C2=N)cc1` the growth inhibition was inconclusive: 1.96%. For `O=C(NC1CCCC1)c1cccc(Cl)c1`, the growth inhibition was inconclusive: 32.3%. In the case of `Nc1ccc(OCc2ccccc2)cc1[N+](=O)[O-]`, the growth inhibition is reported as inconclusive: 5.27%.
